Measured values: the supplement of paper PMC3334620
In all, about 33,000 sequences were measured (“E-score (-0.5 to 0.5)”: median about -0.0034, highest 2% from about 0.25 on). The list shows a part of the results.

target: T1, Yap3 (UniProt P38749); test: PBM E-score (8-mer binding enrichment) (E-score (-0.5 to 0.5)); higher = stronger / more preferred TF binding; conditions: protein concentration: 100 nM; construct: GST-full length
T1 sequence: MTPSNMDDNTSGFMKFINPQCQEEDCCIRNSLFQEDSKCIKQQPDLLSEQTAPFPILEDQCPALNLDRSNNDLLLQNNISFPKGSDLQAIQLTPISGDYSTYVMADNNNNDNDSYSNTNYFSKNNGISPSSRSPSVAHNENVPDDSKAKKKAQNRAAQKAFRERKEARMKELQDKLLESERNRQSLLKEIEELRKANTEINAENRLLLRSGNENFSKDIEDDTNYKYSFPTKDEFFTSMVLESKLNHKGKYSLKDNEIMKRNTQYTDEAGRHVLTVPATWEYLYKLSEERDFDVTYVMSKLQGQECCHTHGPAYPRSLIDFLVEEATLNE
Protocol: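 Universal 'all 10-mer' protein binding microarrays (Agilent AMADID 015681) probed with GST-tagged S. cerevisiae TFs (full-length or DBD) made by in vitro transcription/translation (PURExpress), about 100-200 nM. Bound TF was detected with fluorescent anti-GST. Each ungapped 8-mer (which stands for itself and its reverse complement) is scored by the PBM enrichment score (E-score), a modified Wilcoxon-Mann-Whitney statistic from -0.5 to +0.5, computed with the Universal PBM Analysis Suite. Scale: above 0.35 generally sequence-specific binding.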

Sequence	PBM E-score
GGTCGGCA	-0.16
ACATCTTC	0.0249
AAGAGGCT	-0.0985
CATGCCGC	0.218
CACGATAA	0.2
CGTTCATA	-0.0126
CAACCTGA	-0.046
CACGTAGA	0.129
AGGTTGTG	0.0448
ATGGCCGC	-0.139
CGTTTGGC	0.0237
ACCGATGA	0.00688
ATACAACC	0.158
ACTTGAAA	0.22
CCCATTCA	0.0473
GAACCCCA	-0.0227
CGACTAAC	0.0844
CCTAGCTA	-0.155
GCATACTA	-0.0542
CCTACCAG	-0.227
TGAAATCA	0.0982
CACATTTA	0.156
CAGAAAGA	0.0646
CCGGGTCA	-0.257
CAGTTACA	0.0866

Sequence	PBM E-score
AAAACATG	0.151
ACGCTCAG	-0.206
GCAGGGCA	-0.117
AGCATAAT	0.152
GCCCTCTA	-0.194
CTCTCGAC	-0.141
GCGATTCA	0.0209
AGCTGATC	0.0213
CGGTTAAG	-0.0153
AAGGACCT	0.0792
AGTGAATC	-0.0439
CCGATCTC	-0.0464
CGGTACAG	0.0621
ACTCAGTC	-0.0247
GCCAGTCA	-0.114
CGATGACG	-0.238
GCAAGAGC	0.0247
GAATCCCC	-0.226
CACATCCG	0.0282
AGTCGAGA	0.0233
TACGCAAA	-0.1
ATAGAACG	0.17
ATCATCGA	0.0689
CAACGATC	-0.0801
TCAACGGA	0.0124

Sequence	PBM E-score
TAGTGGCA	-0.0368
AAAGGCAG	-0.0629
CACTGTGA	-0.0193
CTCTTGAA	-0.0535
AGTAGTAA	0.0784
CGACGGGA	0.0333
AGGGACCG	-0.221
AGATATCG	-0.0884
ATGACTAG	0.07
ATCCGGCA	0.0844
AGGAGCGA	-0.178
ATTGGTCA	0.166
AATTAGAC	0.209
CTAGCGCC	-0.183
CATGGAGG	-0.253
ACCACACG	0.0216
GCCTGGTA	0.0208
GGTCTAAC	-0.068
CTTTCAGC	-0.103
AGTTTCTA	-0.0367
GCCGAGAA	0.0617
CTCCAAAA	-0.104
CTTACCTA	0.115
GACTCGAC	-0.152
CAAGCACC	-0.197

Sequence	PBM E-score
AGTGCGCC	-0.169
TCGATTAA	0.308
AACCCCTT	-0.132
CGGCTATA	0.0193
ACATAACC	0.0973
ATTTGGTC	0.117
CCTTTTGA	0.0986
CAGCGTGG	-0.117
ACGCATCC	-0.176
GCTGTTAC	-0.183
CACTACCA	0.0215
AAGTGTGC	0.101
GTAGAGAC	-0.183
AACCAACT	0.0968
GATTAGAA	0.0967
CCGTTTAC	0.136
CATGTACA	-0.00965
CTATGTTA	0.174
CTTCAGAC	-0.114
ACTATGCG	0.0104
CACGGCTC	-0.0628
GCGTACAA	-0.066
ACTCAGCG	0.0316
GGGCAAGA	0.116
AGCATGAA	0.0995

Sequence	PBM E-score
ATGACCTC	-0.118
AATGGTCT	-0.159
CTCGCATC	-0.0576
CTATTTGC	-0.0602
CAACTAGA	-0.00242
AAGATATC	0.118
GAGTAGGA	-0.0726
GTCAAATA	0.209
GCGGCTTA	0.0695
CTTATATA	0.315
CGCACTTC	-0.0913
AAATTACA	0.217
CCTCGTTA	0.0852
CCGTGACG	-0.106
AATTGGCG	0.0836
AGGGGAAA	-0.0319
AACTGCGC	-0.0507
AAGATTGT	0.056
ATTACTCC	0.143
GTAGCCAC	-0.141
GATGATGA	0.0246
CAACGTCC	-0.231
AAGATTTG	0.0472
AACCCTTG	-0.162
ATCAGGCG	0.0742

Sequence	PBM E-score
ATAACCGC	0.0861
CATCGGAA	0.186
AGCTAATA	0.104
AATGCACA	0.0833
GAGTACAC	-0.115
CTAGGTTA	0.0859
ACAGGTCT	-0.102
CATAAACA	0.213
GTGGAAAC	0.0323
ATTAGCGG	-0.00099
AAATTGAG	0.0237
CGTTTAGC	-0.0511
GACTGGAC	-0.315
GCCAGTAC	-0.12
CTTAAACA	0.00735
CTAGGGGC	-0.168
CTAGACTA	-0.0398
CTGTCAGC	0.0678
CGCAACCC	-0.0769
ACTACTGG	-0.0911
ATCGAGGG	-0.0785
CCTCATCG	0.0887
CGAATGCC	-0.0529
ATGCCGCG	0.0881
CTTTAGTC	-0.0892

Sequence	PBM E-score
GAGGTAGA	-0.0601
AAGACTAC	-0.0386
GCATCAAA	0.138
GACTGGCC	-0.267
CCACGTGC	0.0444
AAGCAAGT	0.0666
CATCTACA	0.144
ATCCAAGC	-0.146
ATAGACTA	0.0391
CCCACTAC	0.118
GTGGTCGA	-0.117
AACACGGG	0.01
GGGTCATA	-0.118
ACAAATCC	0.195
CCGTAAGC	0.144
TTCGAGAA	0.0629
ACCCACGC	-0.0325
CACCTTGA	-0.157
CCACGTGG	-0.263
AGACGCAC	-0.00134
AGATCCTA	0.0833
CCTCGCCA	-0.302
GGCGGCTA	-0.0121
CGCTTTCC	-0.0606
CAGCCAAA	0.0704

Sequence	PBM E-score
AAGTGGTG	-0.086
CCGAGTCG	-0.185
ACTCATGC	0.0756
ACTCTTAA	-0.0823
ACACTCAC	0.16
AACCTGCG	-0.149
TAACGGCA	0.0998
CAGGAAAG	-0.104
CCTAAAAG	-0.238
AACGTACA	0.157
GGTAACTA	0.186
CGGCCGGC	-0.268
CATTCACC	0.14
CGTGCGTC	0.128
CAAGGCTG	-0.118
GGCAGTCA	-0.11
ACTGTGGC	-0.231
ACGCGTGA	0.125
AGCTGTCA	-0.0724
AACGGCTC	0.104
CAGAAACC	0.0742
CACAGGGA	-0.149
CGTTCGGA	0.133
AACGCCCA	0.0574
CGCCTTAG	-0.0973

Sequence	PBM E-score
CTCCACTC	-0.303
GAGTTCGC	-0.0914
CAATCTAA	0.0501
AGTGTATA	-0.0181
GCTAGTAA	0.0522
ACTCCAGG	-0.0934
AAACTACT	0.193
GACCGGTA	-0.33
AGGTTCAC	-0.0757
CGCGTGAG	0.046
AGCGAGCT	0.0546
CACAGGCA	0.0714
GAGGAGCC	-0.275
CCTAGCCC	-0.213
AAAGATGT	0.0237
CGTTGATC	0.0509
ATATCGCG	0.251
AACGGAGA	0.133
ACTTTAGA	-0.0113
AAACACCG	0.0566
ACGATAGC	-0.0134
AGCGACGC	-0.117
ACTTCACG	0.0216
GGGGCTTA	-0.228
AGGGACAC	0.147

Sequence	PBM E-score
CAGTCTGC	-0.0875
CACAGATA	-0.105
ACGCATTC	0.0461
AATTCCGC	0.15
AAAAGCAT	0.125
GGACCATA	-0.138
ATGACCAC	0.121
GATTCAAC	0.0463
GTGCGGAA	0.0764
CGTGCAAG	-0.102
CATATCCG	0.169
GAATCCAC	0.0717
AGGTAAAC	0.0545
AGCTCTAT	0.0447
CTCCGTCC	-0.316
AGCACCAT	-0.267
ATATAGCG	0.0882
CAACGTGC	0.0377
GTACGACA	0.163
GGTTATTA	0.158
ATCACCCA	-0.0559
GGAATCCC	-0.106
ACCTATTG	-0.0239
GACAGCGA	-0.201
CTTAATTC	0.183

Sequence	PBM E-score
GGATCACC	-0.0859
CCGTGGCA	-0.125
CGCTTAGC	-0.0814
ACGAATAT	0.212
GCGGCTCC	-0.272
AGCACCCG	-0.0751
GCACGAGA	-0.0452
GCCGGTTA	-0.103
CCGCGATA	0.0701
CATTTTAA	0.219
AGCTCCAG	-0.12
AATAATCA	0.11
CCATCGGC	-0.117
CTCTTCAC	0.0352
GCTTTTGA	-0.0979
CATCATGG	-0.00375
CAATTAGA	0.0631
CACGTGAC	0.00807
CAACCAGG	-0.139
ACTGGGAA	0.102
GAAGTATC	0.116
ACGTGAGT	-0.0251
AAGTTATG	0.256
ATCTACGA	-0.203
ACCTATAT	0.204

Sequence	PBM E-score
TACGACCA	-0.00899
AGAGCACA	0.0746
AATCGCTC	-0.104
CCGGTAGA	-0.0819
ACTCGGAT	0.0525
GGTTTATA	0.0813
GATCGTCA	-0.0725
AAGAGCAG	-0.065
ACCACTGC	-0.048
AGGACGCA	-0.0726
CCCCGCGG	-0.125
GGTCGCTA	-0.248
AAGCTATG	-0.152
GCACAACA	0.151
TCGCTCCA	-0.123
CCGGTGTC	-0.108
ACAGCGTG	-0.0549
ACTTGGTG	-0.121
AGAGAACT	-0.0225
CGCACGAA	0.0256
AGCCCGAA	-0.15
CAAGTCGA	-0.00174
GACTTCAA	-0.118
CCAAAGAC	-0.00049
AAGCGTAG	-0.137

Sequence	PBM E-score
AATGAGAT	0.266
ATAACCAG	0.157
ATCGCCAG	-0.0382
CGTGTTTC	-0.0543
TCGCCGAA	0.0659
GTAGATAA	0.245
ATATCAGA	0.138
TCCTCCGA	-0.1
ATTCTCTA	0.162
CCAGATGC	-0.125
GACGCCCC	-0.263
TAAGTCCA	0.00179
ACACAAGT	0.0806
CCACACAG	-0.0391
ATACATAA	0.285
GCCATATA	0.164
CGCAAGAC	-0.0889
AGGAGACG	-0.195
GCGGGATA	-0.0795
CCTGTACA	-0.126
ACGGAGGG	-0.139
AGCATGGC	-0.156
CATGTGCA	-0.275
AGTTACCA	0.111
CCAATTCA	0.197

Sequence	PBM E-score
CTTAAGTA	0.131
GGTAAATA	0.111
GTTACGTA	0.182
CATAGAAA	0.268
ATGCAGGA	-0.0704
GCTAGACC	-0.343
CAGCGACG	-0.0734
AGCTCCCT	-0.169
GCTCTGGA	0.15
AGCGATCC	-0.123
AACGATGT	0.12
CAGGCATG	-0.0522
CCTCGGAG	-0.0429
AGCCAGAA	-0.0109
TCAAGGCA	-0.115
GCAATGGC	-0.121
AGACAGTC	-0.238
AACTGAAG	0.0554
CCAGGAAC	-0.209
